We go through 65 sequences from publication PMC7862700.

This is one part of the list. The source does not settle which construct or isoform was used.

In the test the target is T1, ETS1 (UniProt P14921).
T1 sequence: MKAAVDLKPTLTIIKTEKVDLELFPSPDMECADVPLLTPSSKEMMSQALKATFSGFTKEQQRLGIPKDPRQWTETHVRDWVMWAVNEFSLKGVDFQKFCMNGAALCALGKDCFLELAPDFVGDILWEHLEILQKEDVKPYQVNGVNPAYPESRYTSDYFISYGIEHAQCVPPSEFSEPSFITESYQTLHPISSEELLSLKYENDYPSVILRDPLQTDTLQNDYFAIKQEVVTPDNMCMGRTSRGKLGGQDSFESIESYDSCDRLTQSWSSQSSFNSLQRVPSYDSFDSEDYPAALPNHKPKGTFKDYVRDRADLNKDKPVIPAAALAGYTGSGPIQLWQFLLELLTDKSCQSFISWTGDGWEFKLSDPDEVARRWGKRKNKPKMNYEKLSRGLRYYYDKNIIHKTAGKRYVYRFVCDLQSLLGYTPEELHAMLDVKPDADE
As to the kind of experiment: DAPPL (digital affinity profiling via proximity ligation, sequencing). Conditions: 10 mM Tris-HCl pH 7.5, 50 mM NaCl, 1 mM DTT, 4% glycerol, room temperature, 30 min; GST-TFs on glutathione beads, 16-mer random dsDNA library, 0.1% …; high values mean tight binding; double strand, one strand shown; scale: fold enrichment (6-mer frequency, TF over GST control).

CCGGAC had a binding signal of 1.33.
TTACAG had a binding signal of 1.21.
Regarding TCCCGG, the binding signal was determined as 2.04.
As for ACTGCC, the binding signal was 1.31.
In the case of TTGTTT it was 1.35.
The figure for CCCGGC is 1.13.
Turning to GGTCTA, the binding signal stood at 1.14.
As for ATACGG, the binding signal was determined as 1.32.
CTTACA had a binding signal of 1.36.
With TTCGCC, the binding signal turned out to be 1.13.
As to CATTGT, the binding signal was found to be 1.14.
In the case of TACCTT it was 1.51.
Regarding GGTTCA, the binding signal was 1.08.
ATACGA displayed a binding signal of 1.22.
In the case of ACGGCT it was 1.13; in that of CCTACC, 1.32.
With CGCCTG, the binding signal came out at 1.05.
The sequence AATACC showed a binding signal of 1.23.
In the case of CAGGAA it was 1.53; in that of TTTGTG, 1.14.
The sequence TCCATA showed a binding signal of 1.38.
In the case of TCCTTA it was 1.7; in that of CGCCTA, 1.15; in that of TACTCC, 1.29.
For the sequence CCACGT, the binding signal is 1.05.
In the case of ACCTGG it was 1.25; in that of ACTTAG, 1.13.
TGTATA yielded a binding signal of 1.1.
In the case of GGGTTT it was 1.13; in that of ACTCTG, 1.29.
GCTCTA displayed a binding signal of 1.19.
The figure for TCTCAG is 1.36; for CATTCT it is 1.35.
Take CTCAGC: the binding signal was found to be 1.26.
With TATTGC, the binding signal worked out at 1.37.
In the case of TTAAGG it was 1.19; in that of TCTACA, 1.25.
Sequence TTCGAC registered a binding signal of 1.51.
Sequence TTAGGT showed a binding signal of 1.07.
In the case of ATTACA, the binding signal was found to be 1.13.
Sequence AATCTC showed a binding signal of 1.25.
Turning to CTATGC, the binding signal worked out at 1.48.
TAACGG had a binding signal of 0.885.
ACTCGA registered a binding signal of 1.31.
As for ACAACA, the binding signal amounted to 1.22.
On to TTGTCA, for which the binding signal worked out at 1.19.
In the case of TCAAAC it was 1.22; in that of TGACTA, 1.13.
The sequence CTTAGT gave a binding signal of 1.32.
Sequence CTACGC registered a binding signal of 1.63.
In turn, GTTATG had a binding signal of 1.12.
The figure for ATATAT is 1.49.
The figure for TTGCAG is 1.17; for TTCCTA it is 1.65; for GCTACT it is 1.26.
Sequence CTTTCG registered a binding signal of 1.24.
With TTCTTA, the binding signal came to 1.42.
In turn, GAAACT had a binding signal of 1.26.
The figure for AATACG is 1.26.
GTTAAG had a binding signal of 1.03.
Sequence CCACTA returned a binding signal of 1.09.
Turning to CAACAC, the binding signal came to 1.15.
CTGCTG returned a binding signal of 1.19.
AGCCTT showed a binding signal of 1.19.
Take CTCCAT: the binding signal turned out to be 1.3.
